# Measurements reported in PubChem BioAssay AID1259254 (NCATS, 2017)
# Screen: 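Finding genes that stop cells copying their DNA twice in one cycle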 (primary screen)
# Cell system: human HCT116 colorectal cancer cells
# Reagent: single siRNA against human genes
# Time to read-out: 3 days
# Measured: 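Nuclei stained with Hoechst and imaged; cell-cycle phase assigned by DNA content; G2 share scaled per plate, non-targeting siRNA 0%, GMNN siRNA 100%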
# Scale: G2 robust z-score and G2 cells, % of GMNN control: higher = more G2 cells, more excess DNA replication
# Hit rule: 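An siRNA counts as active if its G2 robust z-score lies at least 5 MADs above the screen median; here such calls match roughly 38% of GMNN control or more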
# This is an unselected part of about 59,000 deposited reagents. About 1,550 of all reagents (2.6%) were called active. 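G2 share is only a proxy for re-replication; each gene was hit by three separate siRNAs, and active genes were retested.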 Entries without a mark were called inactive. The numbers tell different reagents against one gene apart. Not all columns of the deposit are shown. No sequences are given here. Not stated in the record: the amount of reagent.
gene symbol,reagent no.,G2 robust z-score,"G2 cells, % of GMNN control"
NOA1 (nitric oxide associated 1),1,-0.941,-3.66
NOA1 (nitric oxide associated 1),2,2.47,20.3
NOA1 (nitric oxide associated 1),3,-0.0908,2.33
CXorf38 (chromosome X open reading frame 38),1,-0.577,-1.09
CXorf38 (chromosome X open reading frame 38),2,-0.199,1.56
CXorf38 (chromosome X open reading frame 38),3,0.36,5.5
"ST3GAL4 (ST3 beta-galactoside alpha-2,3-sialyltransferase 4)",1,2.76,22.4
"ST3GAL4 (ST3 beta-galactoside alpha-2,3-sialyltransferase 4)",2,0.172,4.17
"ST3GAL4 (ST3 beta-galactoside alpha-2,3-sialyltransferase 4)",3,0.149,4.01
PPP2R2D (protein phosphatase 2 regulatory subunit Bdelta),1,1.28,12
PPP2R2D (protein phosphatase 2 regulatory subunit Bdelta),2,-0.285,0.965
PPP2R2D (protein phosphatase 2 regulatory subunit Bdelta),3,1.11,10.8
CCNK (cyclin K),1,2.58,21.1
CCNK (cyclin K),2,-0.525,-0.725
CCNK (cyclin K),3,-1.09,-4.7
MSI1 (musashi RNA binding protein 1),1,2.29,19.1
MSI1 (musashi RNA binding protein 1),2,1.16,11.1
MSI1 (musashi RNA binding protein 1),3,-0.154,1.88
NEU2 (neuraminidase 2),1,-0.382,0.276
NEU2 (neuraminidase 2),2,1.56,13.9
NEU2 (neuraminidase 2),3,0.243,4.68
RNASEH1 (ribonuclease H1),1,0.312,5.16
RNASEH1 (ribonuclease H1),2,-0.712,-2.04
RNASEH1 (ribonuclease H1),3,4.26,32.9
QPRT (quinolinate phosphoribosyltransferase),1,-1.52,-7.73
QPRT (quinolinate phosphoribosyltransferase),2,-1.03,-4.28
QPRT (quinolinate phosphoribosyltransferase),3,7.18 (active),53.5
ZNF761 (zinc finger protein 761),1,0.538,6.75
ZNF761 (zinc finger protein 761),2,1.41,12.9
ZNF761 (zinc finger protein 761),3,1.73,15.2
TTL (tubulin tyrosine ligase),1,0.0575,3.37
TTL (tubulin tyrosine ligase),2,5.76 (active),43.5
TTL (tubulin tyrosine ligase),3,3.74,29.3
GPA33 (glycoprotein A33),1,-0.722,-2.11
GPA33 (glycoprotein A33),2,-1.44,-7.2
GPA33 (glycoprotein A33),3,2.01,17.1
LOC285191,1,-0.178,1.71
LOC285191,2,-0.831,-2.88
LOC285191,3,0.23,4.59
HMGB3P22 (high mobility group box 3 pseudogene 22),1,0.128,3.87
HMGB3P22 (high mobility group box 3 pseudogene 22),2,-1.32,-6.35
HMGB3P22 (high mobility group box 3 pseudogene 22),3,-0.795,-2.63
SERTAD3 (SERTA domain containing 3),1,-0.132,2.04
SERTAD3 (SERTA domain containing 3),2,-1.21,-5.56
SERTAD3 (SERTA domain containing 3),3,1.06,10.4
DIAPH3 (diaphanous related formin 3),1,-0.51,-0.618
DIAPH3 (diaphanous related formin 3),2,2.74,22.3
DIAPH3 (diaphanous related formin 3),3,-0.263,1.12
"RAB2A (RAB2A, member RAS oncogene family)",1,-0.948,-3.7
"RAB2A (RAB2A, member RAS oncogene family)",2,1.37,12.6
"RAB2A (RAB2A, member RAS oncogene family)",3,-0.633,-1.49
LRRC8B (leucine rich repeat containing 8 VRAC subunit B),1,-0.602,-1.27
LRRC8B (leucine rich repeat containing 8 VRAC subunit B),2,0.514,6.59
LRRC8B (leucine rich repeat containing 8 VRAC subunit B),3,1.04,10.3

The list goes on; the last 12 above are carried over.
gene symbol,reagent no.,G2 robust z-score,"G2 cells, % of GMNN control"
SERTAD3 (SERTA domain containing 3),1,-0.132,2.04
SERTAD3 (SERTA domain containing 3),2,-1.21,-5.56
SERTAD3 (SERTA domain containing 3),3,1.06,10.4
DIAPH3 (diaphanous related formin 3),1,-0.51,-0.618
DIAPH3 (diaphanous related formin 3),2,2.74,22.3
DIAPH3 (diaphanous related formin 3),3,-0.263,1.12
"RAB2A (RAB2A, member RAS oncogene family)",1,-0.948,-3.7
"RAB2A (RAB2A, member RAS oncogene family)",2,1.37,12.6
"RAB2A (RAB2A, member RAS oncogene family)",3,-0.633,-1.49
LRRC8B (leucine rich repeat containing 8 VRAC subunit B),1,-0.602,-1.27
LRRC8B (leucine rich repeat containing 8 VRAC subunit B),2,0.514,6.59
LRRC8B (leucine rich repeat containing 8 VRAC subunit B),3,1.04,10.3
TVP23B (trans-golgi network vesicle protein 23 homolog B),1,1.06,10.5
TVP23B (trans-golgi network vesicle protein 23 homolog B),2,-0.673,-1.77
TVP23B (trans-golgi network vesicle protein 23 homolog B),3,0.0256,3.15
AADACL3 (arylacetamide deacetylase like 3),1,0.85,8.95
AADACL3 (arylacetamide deacetylase like 3),2,3.1,24.8
AADACL3 (arylacetamide deacetylase like 3),3,-0.53,-0.763
"PCYT1A (phosphate cytidylyltransferase 1A, choline)",1,1.41,12.9
"PCYT1A (phosphate cytidylyltransferase 1A, choline)",2,-0.0347,2.72
"PCYT1A (phosphate cytidylyltransferase 1A, choline)",3,2.47,20.4
GUCY1A1 (guanylate cyclase 1 soluble subunit alpha 1),1,0.0576,3.37
GUCY1A1 (guanylate cyclase 1 soluble subunit alpha 1),2,-0.693,-1.91
GUCY1A1 (guanylate cyclase 1 soluble subunit alpha 1),3,0.678,7.74
CLEC3B (C-type lectin domain family 3 member B),1,0.179,4.23
CLEC3B (C-type lectin domain family 3 member B),2,6.3 (active),47.3
CLEC3B (C-type lectin domain family 3 member B),3,-0.0312,2.75
LRP11 (LDL receptor related protein 11),1,-0.442,-0.141
LRP11 (LDL receptor related protein 11),2,0.172,4.18
LRP11 (LDL receptor related protein 11),3,3.27,25.9
CMC1 (C-X9-C motif containing 1),1,1.07,10.5
CMC1 (C-X9-C motif containing 1),2,-1.09,-4.73
CMC1 (C-X9-C motif containing 1),3,0.159,4.09
KIAA1143,1,-0.343,0.552
KIAA1143,2,-0.202,1.55
KIAA1143,3,-0.238,1.29
RBL2 (RB transcriptional corepressor like 2),1,-0.746,-2.28
RBL2 (RB transcriptional corepressor like 2),2,-0.0472,2.64
RBL2 (RB transcriptional corepressor like 2),3,-0.186,1.66
RSPH14 (radial spoke head 14 homolog),1,0.509,6.55
RSPH14 (radial spoke head 14 homolog),2,-0.317,0.737
RSPH14 (radial spoke head 14 homolog),3,2.4,19.8
PCP4L1 (Purkinje cell protein 4 like 1),1,0.0434,3.27
PCP4L1 (Purkinje cell protein 4 like 1),2,2.79,22.6
PCP4L1 (Purkinje cell protein 4 like 1),3,0.0791,3.52
